Assay results published in publication PMC12152837, “Semaglutide Aggregates into Oligomeric Micelles and Short Fibrils in Aqueous Solution” (Biomacromolecules, 2025).

Assay: Circular dichroism, α-helix content
Format: physicochemical
Conditions: for α-helix content: from [Θ]222; for α-helix fraction f a: from [θ]222(obs) versus theoretical

With Semaglutide the α-helix content (40-day aged 1 wt % solution in water) was 4.2%, the “α-helix fraction f a” value (40-day aged sample) was 0.042 and the α-helix content (fresh 1 wt % solution in water) was 2.7%. The “α-helix fraction f a” value (fresh sample) was 0.027.
